According to the supplement of paper PMC12823440, “Inhibitors supercharge kinase turnover through native proteolytic circuits” (Nature, 2025):
Structures can show the parent of a compound that is named as a salt. The list shows a part of the results. The calls rarely recur for the same compound in another form.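 Kinases, fused to nanoluciferase, were expressed in K562 cells; luminescence was measured every 4 h from 2 to 18 h as percent of control (DMSO = 100%, positive control = 0%). A time point is decreased if signal falls significantly (2 sigma). Hits were called by the authors by a rule that is not shown; the count of time points alone does not decide it.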

Protein sequences, listed by entry. Tags and fused reporters are not part of them. Lines headed by an entry give the natural chain unless they say otherwise; changes in a name come on top.
UniProt P07949, whole entry, looked up: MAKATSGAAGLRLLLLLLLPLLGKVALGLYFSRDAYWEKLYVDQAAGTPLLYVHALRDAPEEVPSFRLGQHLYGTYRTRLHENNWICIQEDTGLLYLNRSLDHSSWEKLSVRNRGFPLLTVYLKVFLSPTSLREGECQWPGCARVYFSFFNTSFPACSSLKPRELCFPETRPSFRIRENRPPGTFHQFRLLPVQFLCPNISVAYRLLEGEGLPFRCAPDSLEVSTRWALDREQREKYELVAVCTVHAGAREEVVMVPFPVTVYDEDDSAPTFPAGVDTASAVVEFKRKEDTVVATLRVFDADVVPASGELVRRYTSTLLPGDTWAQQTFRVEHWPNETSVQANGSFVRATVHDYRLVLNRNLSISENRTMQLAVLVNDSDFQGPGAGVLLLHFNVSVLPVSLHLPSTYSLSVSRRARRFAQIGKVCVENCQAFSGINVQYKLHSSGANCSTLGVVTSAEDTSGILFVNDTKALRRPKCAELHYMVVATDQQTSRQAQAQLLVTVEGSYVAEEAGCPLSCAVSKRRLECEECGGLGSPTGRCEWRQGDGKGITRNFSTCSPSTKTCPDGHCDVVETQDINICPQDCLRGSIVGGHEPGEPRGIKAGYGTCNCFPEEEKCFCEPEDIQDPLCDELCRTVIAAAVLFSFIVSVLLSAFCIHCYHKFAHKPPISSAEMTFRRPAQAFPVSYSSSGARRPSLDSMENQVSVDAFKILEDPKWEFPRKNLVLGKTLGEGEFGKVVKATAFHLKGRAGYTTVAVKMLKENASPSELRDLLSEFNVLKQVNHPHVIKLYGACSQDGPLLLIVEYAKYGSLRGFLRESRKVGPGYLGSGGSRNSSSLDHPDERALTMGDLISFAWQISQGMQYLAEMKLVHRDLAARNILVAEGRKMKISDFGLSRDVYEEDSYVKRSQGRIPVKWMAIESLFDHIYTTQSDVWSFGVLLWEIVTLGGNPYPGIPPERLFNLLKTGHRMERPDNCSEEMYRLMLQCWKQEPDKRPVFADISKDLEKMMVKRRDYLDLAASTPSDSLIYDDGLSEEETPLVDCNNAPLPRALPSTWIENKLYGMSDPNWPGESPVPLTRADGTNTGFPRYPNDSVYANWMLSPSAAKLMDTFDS
UniProt P07949, whole entry M918T, looked up: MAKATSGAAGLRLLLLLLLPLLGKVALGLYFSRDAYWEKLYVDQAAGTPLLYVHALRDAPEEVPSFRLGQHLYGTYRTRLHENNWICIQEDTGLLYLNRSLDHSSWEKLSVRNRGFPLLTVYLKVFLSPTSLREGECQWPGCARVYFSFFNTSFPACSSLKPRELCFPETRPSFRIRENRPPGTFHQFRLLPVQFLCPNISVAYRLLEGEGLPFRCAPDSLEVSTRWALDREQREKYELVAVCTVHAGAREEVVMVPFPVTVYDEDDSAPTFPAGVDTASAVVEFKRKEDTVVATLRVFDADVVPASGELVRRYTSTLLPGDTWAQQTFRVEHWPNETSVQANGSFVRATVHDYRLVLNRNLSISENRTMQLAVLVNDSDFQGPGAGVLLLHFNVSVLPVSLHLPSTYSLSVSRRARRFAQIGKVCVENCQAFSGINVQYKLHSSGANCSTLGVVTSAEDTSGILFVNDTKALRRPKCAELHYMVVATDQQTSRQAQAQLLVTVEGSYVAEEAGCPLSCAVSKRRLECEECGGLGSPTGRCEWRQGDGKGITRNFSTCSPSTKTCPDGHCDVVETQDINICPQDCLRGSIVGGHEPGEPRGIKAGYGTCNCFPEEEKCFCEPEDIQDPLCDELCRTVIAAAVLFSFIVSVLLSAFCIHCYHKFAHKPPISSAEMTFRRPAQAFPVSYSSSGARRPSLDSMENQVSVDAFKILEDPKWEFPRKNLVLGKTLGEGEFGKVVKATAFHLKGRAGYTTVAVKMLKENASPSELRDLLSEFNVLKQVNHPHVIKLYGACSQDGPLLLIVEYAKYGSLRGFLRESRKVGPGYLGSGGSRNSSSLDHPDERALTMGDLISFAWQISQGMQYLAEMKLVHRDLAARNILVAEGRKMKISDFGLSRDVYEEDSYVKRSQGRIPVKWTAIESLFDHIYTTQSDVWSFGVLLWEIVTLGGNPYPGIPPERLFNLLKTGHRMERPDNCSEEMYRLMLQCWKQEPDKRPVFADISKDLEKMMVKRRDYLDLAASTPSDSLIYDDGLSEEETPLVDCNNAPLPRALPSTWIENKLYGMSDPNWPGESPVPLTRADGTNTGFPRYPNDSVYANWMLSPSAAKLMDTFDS
UniProt Q01974, whole entry: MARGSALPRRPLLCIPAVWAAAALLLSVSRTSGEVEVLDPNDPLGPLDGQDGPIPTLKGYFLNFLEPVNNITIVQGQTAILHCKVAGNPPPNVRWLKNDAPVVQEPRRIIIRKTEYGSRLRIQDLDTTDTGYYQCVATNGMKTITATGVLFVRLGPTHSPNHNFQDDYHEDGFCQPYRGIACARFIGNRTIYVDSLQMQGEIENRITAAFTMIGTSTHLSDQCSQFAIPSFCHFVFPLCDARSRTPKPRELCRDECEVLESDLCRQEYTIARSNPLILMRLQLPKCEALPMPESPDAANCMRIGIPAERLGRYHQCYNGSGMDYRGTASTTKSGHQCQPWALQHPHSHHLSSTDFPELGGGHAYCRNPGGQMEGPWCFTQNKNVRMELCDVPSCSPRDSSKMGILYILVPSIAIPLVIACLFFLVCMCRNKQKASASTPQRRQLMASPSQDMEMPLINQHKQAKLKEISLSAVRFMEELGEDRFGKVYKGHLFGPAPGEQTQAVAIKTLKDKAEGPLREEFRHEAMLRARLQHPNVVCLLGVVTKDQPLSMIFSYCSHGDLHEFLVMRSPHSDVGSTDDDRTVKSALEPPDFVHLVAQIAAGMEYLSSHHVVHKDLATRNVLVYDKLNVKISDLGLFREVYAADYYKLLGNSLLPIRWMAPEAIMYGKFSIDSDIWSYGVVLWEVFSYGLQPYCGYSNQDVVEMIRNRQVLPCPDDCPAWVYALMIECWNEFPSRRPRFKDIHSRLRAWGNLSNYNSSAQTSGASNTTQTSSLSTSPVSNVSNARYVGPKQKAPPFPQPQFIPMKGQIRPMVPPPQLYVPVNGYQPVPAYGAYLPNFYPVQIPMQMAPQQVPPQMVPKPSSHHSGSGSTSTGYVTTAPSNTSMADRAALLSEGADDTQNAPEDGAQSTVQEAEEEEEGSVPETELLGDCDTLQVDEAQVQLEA
UniProt Q9Y6E0: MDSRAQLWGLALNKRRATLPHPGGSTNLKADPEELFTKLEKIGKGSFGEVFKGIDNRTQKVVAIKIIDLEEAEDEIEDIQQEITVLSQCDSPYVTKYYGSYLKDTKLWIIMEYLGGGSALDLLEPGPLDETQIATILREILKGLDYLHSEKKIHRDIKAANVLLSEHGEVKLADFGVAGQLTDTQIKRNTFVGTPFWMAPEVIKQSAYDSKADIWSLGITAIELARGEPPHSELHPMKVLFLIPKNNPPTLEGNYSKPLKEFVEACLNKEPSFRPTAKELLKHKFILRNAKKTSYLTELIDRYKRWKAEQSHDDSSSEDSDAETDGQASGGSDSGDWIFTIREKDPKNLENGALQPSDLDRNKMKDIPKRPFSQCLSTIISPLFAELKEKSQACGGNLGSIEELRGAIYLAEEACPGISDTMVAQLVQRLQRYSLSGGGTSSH
UniProt Q15208: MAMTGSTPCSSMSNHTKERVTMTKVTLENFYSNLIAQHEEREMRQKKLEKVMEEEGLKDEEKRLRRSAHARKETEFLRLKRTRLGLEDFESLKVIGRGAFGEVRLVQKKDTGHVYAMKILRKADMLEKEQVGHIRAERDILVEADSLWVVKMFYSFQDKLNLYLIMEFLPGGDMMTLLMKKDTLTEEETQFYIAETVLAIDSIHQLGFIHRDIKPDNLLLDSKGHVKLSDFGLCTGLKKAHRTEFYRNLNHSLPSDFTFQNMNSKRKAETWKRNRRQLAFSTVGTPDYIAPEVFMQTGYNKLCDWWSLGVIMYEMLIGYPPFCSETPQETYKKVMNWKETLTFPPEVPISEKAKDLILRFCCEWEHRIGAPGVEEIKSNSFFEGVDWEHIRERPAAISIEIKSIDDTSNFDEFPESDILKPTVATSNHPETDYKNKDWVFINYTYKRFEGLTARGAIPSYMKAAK
UniProt P42680: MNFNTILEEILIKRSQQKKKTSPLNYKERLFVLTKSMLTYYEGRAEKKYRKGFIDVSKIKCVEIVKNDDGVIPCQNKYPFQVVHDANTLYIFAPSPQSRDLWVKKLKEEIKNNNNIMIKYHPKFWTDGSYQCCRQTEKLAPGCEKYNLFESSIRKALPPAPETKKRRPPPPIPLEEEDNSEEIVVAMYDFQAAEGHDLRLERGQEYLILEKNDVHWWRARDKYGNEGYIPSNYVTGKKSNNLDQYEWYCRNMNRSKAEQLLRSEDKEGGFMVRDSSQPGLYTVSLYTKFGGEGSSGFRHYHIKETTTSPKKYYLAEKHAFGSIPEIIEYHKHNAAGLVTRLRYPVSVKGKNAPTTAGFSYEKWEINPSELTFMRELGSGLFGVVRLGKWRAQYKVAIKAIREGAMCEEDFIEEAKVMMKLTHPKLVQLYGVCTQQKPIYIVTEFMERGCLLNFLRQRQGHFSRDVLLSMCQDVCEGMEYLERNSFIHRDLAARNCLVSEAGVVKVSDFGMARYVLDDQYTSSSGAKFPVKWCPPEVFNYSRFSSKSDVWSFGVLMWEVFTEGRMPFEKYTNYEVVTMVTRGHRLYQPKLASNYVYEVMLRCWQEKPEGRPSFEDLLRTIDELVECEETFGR
UniProt P29597: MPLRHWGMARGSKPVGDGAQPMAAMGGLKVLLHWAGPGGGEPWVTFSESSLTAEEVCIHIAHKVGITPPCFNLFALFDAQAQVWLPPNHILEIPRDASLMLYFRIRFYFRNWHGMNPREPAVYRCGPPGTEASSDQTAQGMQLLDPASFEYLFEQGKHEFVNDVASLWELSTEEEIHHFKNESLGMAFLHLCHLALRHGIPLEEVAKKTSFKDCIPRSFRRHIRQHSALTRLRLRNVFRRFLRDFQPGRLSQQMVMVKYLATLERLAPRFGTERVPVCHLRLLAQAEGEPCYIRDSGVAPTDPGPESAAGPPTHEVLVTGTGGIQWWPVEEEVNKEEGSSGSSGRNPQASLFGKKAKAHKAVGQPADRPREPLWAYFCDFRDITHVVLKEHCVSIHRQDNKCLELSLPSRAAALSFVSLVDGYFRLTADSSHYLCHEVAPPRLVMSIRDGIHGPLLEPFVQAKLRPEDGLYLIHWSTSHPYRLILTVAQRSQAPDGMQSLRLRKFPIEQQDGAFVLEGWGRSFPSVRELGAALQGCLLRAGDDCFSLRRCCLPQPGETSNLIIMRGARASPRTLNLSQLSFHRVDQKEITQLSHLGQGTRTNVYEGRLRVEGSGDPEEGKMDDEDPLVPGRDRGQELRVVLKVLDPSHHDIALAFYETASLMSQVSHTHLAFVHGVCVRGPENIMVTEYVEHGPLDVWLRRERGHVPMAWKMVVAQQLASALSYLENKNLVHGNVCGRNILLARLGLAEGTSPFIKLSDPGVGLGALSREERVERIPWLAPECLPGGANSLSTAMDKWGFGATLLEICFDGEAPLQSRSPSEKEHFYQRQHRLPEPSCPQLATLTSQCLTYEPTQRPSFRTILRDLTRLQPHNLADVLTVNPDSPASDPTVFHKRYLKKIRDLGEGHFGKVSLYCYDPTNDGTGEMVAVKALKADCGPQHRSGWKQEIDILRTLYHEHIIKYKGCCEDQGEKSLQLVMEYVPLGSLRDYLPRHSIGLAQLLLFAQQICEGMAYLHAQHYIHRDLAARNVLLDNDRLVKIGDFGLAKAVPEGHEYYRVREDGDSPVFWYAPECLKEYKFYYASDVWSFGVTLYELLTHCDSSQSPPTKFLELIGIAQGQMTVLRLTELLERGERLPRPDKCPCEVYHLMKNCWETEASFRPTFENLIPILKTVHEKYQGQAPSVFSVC
UniProt Q6PHR2: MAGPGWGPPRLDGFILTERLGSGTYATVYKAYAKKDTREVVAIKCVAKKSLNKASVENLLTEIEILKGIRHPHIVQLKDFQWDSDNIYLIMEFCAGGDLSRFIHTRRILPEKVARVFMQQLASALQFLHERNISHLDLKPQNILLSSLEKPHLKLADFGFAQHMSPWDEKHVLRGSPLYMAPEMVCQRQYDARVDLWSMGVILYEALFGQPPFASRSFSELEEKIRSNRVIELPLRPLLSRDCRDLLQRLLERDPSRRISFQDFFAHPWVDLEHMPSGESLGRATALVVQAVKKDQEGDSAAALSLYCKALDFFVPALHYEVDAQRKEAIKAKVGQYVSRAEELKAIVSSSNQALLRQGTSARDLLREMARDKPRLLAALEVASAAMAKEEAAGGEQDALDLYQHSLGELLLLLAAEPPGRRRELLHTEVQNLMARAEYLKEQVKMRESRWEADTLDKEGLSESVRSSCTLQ

Assays:
Conditions in all cases: K562; 2-18 h
[1] = target: RET (UniProt P07949); assay: kinase-Nluc reporter destabilization hit call (1 = scored as downregulated) (binary); higher = compound decreases kinase abundance
[2] = target: RET_M918T (clone: RET_mut) (UniProt P07949); assay: as above
[3] = target: RIOK1 (UniProt Q9BRS2); assay: as above
[4] = target: RIPK1 (UniProt Q13546); assay: as above
[5] = target: RIPK2 (UniProt O43353); assay: as above
[6] = target: ROR2 (UniProt Q01974); assay: as above
[7] = target: RPS6KA1 (UniProt Q15418); assay: as above
[8] = target: SPHK1 (UniProt Q9NYA1); assay: as above
[9] = target: SRC (UniProt P12931); assay: as above
[10] = target: STK24 (UniProt Q9Y6E0); assay: as above
[11] = target: STK38 (UniProt Q15208); assay: as above
[12] = target: SYK (UniProt P43405); assay: as above
[13] = target: TEC (UniProt P42680); assay: as above
[14] = target: TYK2 (UniProt P29597); assay: as above
[15] = target: ULK3 (UniProt Q6PHR2); assay: as above
[16] = target: YES1 (UniProt P07947); assay: as above
[17] = target: ZAK (UniProt Q9NYL2); assay: as above
[18] = target: ZAP70 (UniProt P43403); assay: as above
[19] = target: ABL1 (UniProt P00519); assay: number of time points (of 5) at which kinase-Nluc abundance scored as decreased, DMSO-normalised (count); higher = more persistent destabilization
[20] = target: AKT1 (UniProt P31749); assay: as above

## CC(=O)c1c(C)c2cnc(Nc3ccc(N4CCN(CCCCNC(=O)COc5cccc6c5C(=O)N(C5CCC(=O)NC5=O)C6=O)CC4)cn3)nc2n(C2CCCC2)c1=O (stereo not given) (10 µM)
[1]
  kinase-Nluc reporter destabilization hit call: inactive: 0
[2]
  kinase-Nluc reporter destabilization hit call: inactive: 0
[3]
  kinase-Nluc reporter destabilization hit call: inactive: 0
[4]
  kinase-Nluc reporter destabilization hit call: inactive: 0
[5]
  kinase-Nluc reporter destabilization hit call: inactive: 0
[6]
  kinase-Nluc reporter destabilization hit call: inactive: 0
[7]
  kinase-Nluc reporter destabilization hit call: inactive: 0
[8]
  kinase-Nluc reporter destabilization hit call: inactive: 0
[9]
  kinase-Nluc reporter destabilization hit call: inactive: 0
[10]
  kinase-Nluc reporter destabilization hit call: inactive: 0
[11]
  kinase-Nluc reporter destabilization hit call: inactive: 0
[12]
  kinase-Nluc reporter destabilization hit call: inactive: 0
[13]
  kinase-Nluc reporter destabilization hit call: inactive: 0
[14]
  kinase-Nluc reporter destabilization hit call: inactive: 0
[15]
  kinase-Nluc reporter destabilization hit call: inactive: 0
[16]
  kinase-Nluc reporter destabilization hit call: inactive: 0
[17]
  kinase-Nluc reporter destabilization hit call: inactive: 0
[18]
  kinase-Nluc reporter destabilization hit call: inactive: 0
[19]
  number of time points: 0
[20]
  number of time points: 0

## CN(C)CCN(Cc1ccc(Cl)cc1)c1ccccn1 [Chloropyramine hydrochloride] (10 µM)
[1]
  kinase-Nluc reporter destabilization hit call: inactive: 0
[2]
  kinase-Nluc reporter destabilization hit call: inactive: 0
[3]
  kinase-Nluc reporter destabilization hit call: inactive: 0
[4]
  kinase-Nluc reporter destabilization hit call: inactive: 0
[5]
  kinase-Nluc reporter destabilization hit call: inactive: 0
[6]
  kinase-Nluc reporter destabilization hit call: inactive: 0
[7]
  kinase-Nluc reporter destabilization hit call: inactive: 0
[8]
  kinase-Nluc reporter destabilization hit call: inactive: 0
[9]
  kinase-Nluc reporter destabilization hit call: inactive: 0
[10]
  kinase-Nluc reporter destabilization hit call: inactive: 0
[11]
  kinase-Nluc reporter destabilization hit call: active: 1
[12]
  kinase-Nluc reporter destabilization hit call: inactive: 0
[13]
  kinase-Nluc reporter destabilization hit call: inactive: 0
[14]
  kinase-Nluc reporter destabilization hit call: inactive: 0
[15]
  kinase-Nluc reporter destabilization hit call: inactive: 0
[16]
  kinase-Nluc reporter destabilization hit call: inactive: 0
[17]
  kinase-Nluc reporter destabilization hit call: inactive: 0
[18]
  kinase-Nluc reporter destabilization hit call: inactive: 0
[19]
  number of time points: 0
[20]
  number of time points: 0

## Cc1ccc(-c2c(C(=O)CCl)n(CCCO)c3ncnc(N)c23)cc1 (10 µM)
[1]
  kinase-Nluc reporter destabilization hit call: inactive: 0
[2]
  kinase-Nluc reporter destabilization hit call: inactive: 0
[3]
  kinase-Nluc reporter destabilization hit call: inactive: 0
[4]
  kinase-Nluc reporter destabilization hit call: inactive: 0
[5]
  kinase-Nluc reporter destabilization hit call: inactive: 0
[6]
  kinase-Nluc reporter destabilization hit call: inactive: 0
[7]
  kinase-Nluc reporter destabilization hit call: inactive: 0
[8]
  kinase-Nluc reporter destabilization hit call: inactive: 0
[9]
  kinase-Nluc reporter destabilization hit call: inactive: 0
[10]
  kinase-Nluc reporter destabilization hit call: inactive: 0
[11]
  kinase-Nluc reporter destabilization hit call: inactive: 0
[12]
  kinase-Nluc reporter destabilization hit call: inactive: 0
[13]
  kinase-Nluc reporter destabilization hit call: inactive: 0
[14]
  kinase-Nluc reporter destabilization hit call: inactive: 0
[15]
  kinase-Nluc reporter destabilization hit call: inactive: 0
[16]
  kinase-Nluc reporter destabilization hit call: inactive: 0
[17]
  kinase-Nluc reporter destabilization hit call: inactive: 0
[18]
  kinase-Nluc reporter destabilization hit call: inactive: 0
[19]
  number of time points: 3
[20]
  number of time points: 0

## O=c1cc(O)cc(/C=C/c2ccc(O)c(O)c2)o1 [Hispidin] (10 µM)
[1]
  kinase-Nluc reporter destabilization hit call: inactive: 0
[2]
  kinase-Nluc reporter destabilization hit call: inactive: 0
[3]
  kinase-Nluc reporter destabilization hit call: inactive: 0
[4]
  kinase-Nluc reporter destabilization hit call: inactive: 0
[5]
  kinase-Nluc reporter destabilization hit call: inactive: 0
[6]
  kinase-Nluc reporter destabilization hit call: inactive: 0
[7]
  kinase-Nluc reporter destabilization hit call: inactive: 0
[8]
  kinase-Nluc reporter destabilization hit call: inactive: 0
[9]
  kinase-Nluc reporter destabilization hit call: inactive: 0
[10]
  kinase-Nluc reporter destabilization hit call: inactive: 0
[11]
  kinase-Nluc reporter destabilization hit call: inactive: 0
[12]
  kinase-Nluc reporter destabilization hit call: inactive: 0
[13]
  kinase-Nluc reporter destabilization hit call: inactive: 0
[14]
  kinase-Nluc reporter destabilization hit call: inactive: 0
[15]
  kinase-Nluc reporter destabilization hit call: inactive: 0
[16]
  kinase-Nluc reporter destabilization hit call: inactive: 0
[17]
  kinase-Nluc reporter destabilization hit call: inactive: 0
[18]
  kinase-Nluc reporter destabilization hit call: inactive: 0
[19]
  number of time points: 0
[20]
  number of time points: 0

## COC1(C(=O)N2Cc3nc(Cl)nc(N[C@H](C)c4cc(N)cc(C(F)(F)F)c4)c3C2)CCOCC1 (10 µM)
[1]
  kinase-Nluc reporter destabilization hit call: inactive: 0
[2]
  kinase-Nluc reporter destabilization hit call: inactive: 0
[3]
  kinase-Nluc reporter destabilization hit call: inactive: 0
[4]
  kinase-Nluc reporter destabilization hit call: inactive: 0
[5]
  kinase-Nluc reporter destabilization hit call: inactive: 0
[6]
  kinase-Nluc reporter destabilization hit call: inactive: 0
[7]
  kinase-Nluc reporter destabilization hit call: inactive: 0
[8]
  kinase-Nluc reporter destabilization hit call: inactive: 0
[9]
  kinase-Nluc reporter destabilization hit call: inactive: 0
[10]
  kinase-Nluc reporter destabilization hit call: inactive: 0
[11]
  kinase-Nluc reporter destabilization hit call: inactive: 0
[12]
  kinase-Nluc reporter destabilization hit call: inactive: 0
[13]
  kinase-Nluc reporter destabilization hit call: inactive: 0
[14]
  kinase-Nluc reporter destabilization hit call: inactive: 0
[15]
  kinase-Nluc reporter destabilization hit call: inactive: 0
[16]
  kinase-Nluc reporter destabilization hit call: inactive: 0
[17]
  kinase-Nluc reporter destabilization hit call: inactive: 0
[18]
  kinase-Nluc reporter destabilization hit call: inactive: 0
[19]
  number of time points: 0
[20]
  number of time points: 0

## Fc1ccc(-c2nc(-c3ccccc3F)[nH]c2-c2ccncc2)cc1 (2.5 µM)
[1]
  kinase-Nluc reporter destabilization hit call: inactive: 0
[2]
  kinase-Nluc reporter destabilization hit call: inactive: 0
[3]
  kinase-Nluc reporter destabilization hit call: inactive: 0
[4]
  kinase-Nluc reporter destabilization hit call: inactive: 0
[5]
  kinase-Nluc reporter destabilization hit call: inactive: 0
[6]
  kinase-Nluc reporter destabilization hit call: inactive: 0
[7]
  kinase-Nluc reporter destabilization hit call: inactive: 0
[8]
  kinase-Nluc reporter destabilization hit call: inactive: 0
[9]
  kinase-Nluc reporter destabilization hit call: inactive: 0
[10]
  kinase-Nluc reporter destabilization hit call: inactive: 0
[11]
  kinase-Nluc reporter destabilization hit call: inactive: 0
[12]
  kinase-Nluc reporter destabilization hit call: inactive: 0
[13]
  kinase-Nluc reporter destabilization hit call: inactive: 0
[14]
  kinase-Nluc reporter destabilization hit call: inactive: 0
[15]
  kinase-Nluc reporter destabilization hit call: inactive: 0
[16]
  kinase-Nluc reporter destabilization hit call: inactive: 0
[17]
  kinase-Nluc reporter destabilization hit call: inactive: 0
[18]
  kinase-Nluc reporter destabilization hit call: inactive: 0
[19]
  number of time points: 0
[20]
  number of time points: 0

## COc1cc2ncn(-c3cc(OCc4ccccc4S(C)(=O)=O)c(C#N)s3)c2cc1OC (10 µM)
[1]
  kinase-Nluc reporter destabilization hit call: inactive: 0
[2]
  kinase-Nluc reporter destabilization hit call: inactive: 0
[3]
  kinase-Nluc reporter destabilization hit call: inactive: 0
[4]
  kinase-Nluc reporter destabilization hit call: inactive: 0
[5]
  kinase-Nluc reporter destabilization hit call: inactive: 0
[6]
  kinase-Nluc reporter destabilization hit call: inactive: 0
[7]
  kinase-Nluc reporter destabilization hit call: inactive: 0
[8]
  kinase-Nluc reporter destabilization hit call: inactive: 0
[9]
  kinase-Nluc reporter destabilization hit call: inactive: 0
[10]
  kinase-Nluc reporter destabilization hit call: inactive: 0
[11]
  kinase-Nluc reporter destabilization hit call: inactive: 0
[12]
  kinase-Nluc reporter destabilization hit call: inactive: 0
[13]
  kinase-Nluc reporter destabilization hit call: inactive: 0
[14]
  kinase-Nluc reporter destabilization hit call: inactive: 0
[15]
  kinase-Nluc reporter destabilization hit call: inactive: 0
[16]
  kinase-Nluc reporter destabilization hit call: inactive: 0
[17]
  kinase-Nluc reporter destabilization hit call: inactive: 0
[18]
  kinase-Nluc reporter destabilization hit call: inactive: 0
[19]
  number of time points: 0
[20]
  number of time points: 0

## COc1cc([N+](=O)[O-])ccc1S(=O)(=O)N1C[C@@H](CN2CCN(c3ccccn3)CC2)[C@H](c2cccc(F)c2)C1 (relative stereo) (10 µM)
[1]
  kinase-Nluc reporter destabilization hit call: inactive: 0
[2]
  kinase-Nluc reporter destabilization hit call: inactive: 0
[3]
  kinase-Nluc reporter destabilization hit call: inactive: 0
[4]
  kinase-Nluc reporter destabilization hit call: inactive: 0
[5]
  kinase-Nluc reporter destabilization hit call: inactive: 0
[6]
  kinase-Nluc reporter destabilization hit call: inactive: 0
[7]
  kinase-Nluc reporter destabilization hit call: inactive: 0
[8]
  kinase-Nluc reporter destabilization hit call: inactive: 0
[9]
  kinase-Nluc reporter destabilization hit call: inactive: 0
[10]
  kinase-Nluc reporter destabilization hit call: inactive: 0
[11]
  kinase-Nluc reporter destabilization hit call: inactive: 0
[12]
  kinase-Nluc reporter destabilization hit call: inactive: 0
[13]
  kinase-Nluc reporter destabilization hit call: inactive: 0
[14]
  kinase-Nluc reporter destabilization hit call: inactive: 0
[15]
  kinase-Nluc reporter destabilization hit call: inactive: 0
[16]
  kinase-Nluc reporter destabilization hit call: inactive: 0
[17]
  kinase-Nluc reporter destabilization hit call: inactive: 0
[18]
  kinase-Nluc reporter destabilization hit call: inactive: 0
[19]
  number of time points: 0
[20]
  number of time points: 0
